PubChem BioAssay AID1259308 – NCATS | 2017

Screen: 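Knock-downs that increase output of a recombinant reporter protein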 (primary screen)
Cells: human HEK293 embryonic kidney cells stably expressing firefly luciferase (HEK-CMV-Luc2-Hygro)
Reagents: single siRNA against human genes, 0.8 pmol siRNA per well
Duration: 72 h
Measured: 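Reporter luminescence and viable-cell signal on separate replicate plates, given as percent of non-targeting control and median/MAD z-scores, plus per-cell luciferase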
Direction: total luciferase, z-score: higher = more reporter protein produced
Rule for the call: 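Active when the median/MAD z-score for overall luciferase is greater than 3; a gene was taken forward for validation with new siRNAs if at least two of its three siRNAs passed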
Calls: active = raised luciferase; inactive = no rise
In all, the deposit lists about 59,000 reagents; shown is an unselected part. About 1,510 of them (2.6%) were called active. 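Calls use total luciferase alone and ignore viability, so some active siRNAs may act by altering cell number.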 Further read-outs or replicates are left out here.

The opening 2 records as a preview:
{"gene knocked down": "UBE2F (ubiquitin conjugating enzyme E2 F (putative))", "PubChem SID": "SID160730632", "total luciferase, z-score": -0.153, "outcome": "inactive"}
{"gene knocked down": "UBE2F (ubiquitin conjugating enzyme E2 F (putative))", "PubChem SID": "SID160757882", "total luciferase, z-score": -0.411, "outcome": "inactive"}

Main list, from the start:
{"gene knocked down": "UBE2F (ubiquitin conjugating enzyme E2 F (putative))", "PubChem SID": "SID160730632", "total luciferase, z-score": -0.153, "outcome": "inactive"}
{"gene knocked down": "UBE2F (ubiquitin conjugating enzyme E2 F (putative))", "PubChem SID": "SID160757882", "total luciferase, z-score": -0.411, "outcome": "inactive"}
{"gene knocked down": "UBE2F (ubiquitin conjugating enzyme E2 F (putative))", "PubChem SID": "SID160757883", "total luciferase, z-score": -0.477, "outcome": "inactive"}
{"gene knocked down": "DECR2 (2,4-dienoyl-CoA reductase 2)", "PubChem SID": "SID160737571", "total luciferase, z-score": -1.57, "outcome": "inactive"}
{"gene knocked down": "DECR2 (2,4-dienoyl-CoA reductase 2)", "PubChem SID": "SID160737572", "total luciferase, z-score": -1, "outcome": "inactive"}
{"gene knocked down": "DECR2 (2,4-dienoyl-CoA reductase 2)", "PubChem SID": "SID160737573", "total luciferase, z-score": 0.357, "outcome": "inactive"}
{"gene knocked down": "GATC (glutamyl-tRNA amidotransferase subunit C)", "PubChem SID": "SID160762921", "total luciferase, z-score": 3.59, "outcome": "active"}
{"gene knocked down": "GATC (glutamyl-tRNA amidotransferase subunit C)", "PubChem SID": "SID160762922", "total luciferase, z-score": -0.11, "outcome": "inactive"}
{"gene knocked down": "GATC (glutamyl-tRNA amidotransferase subunit C)", "PubChem SID": "SID160762923", "total luciferase, z-score": 0.431, "outcome": "inactive"}
{"gene knocked down": "CKAP2L (cytoskeleton associated protein 2L)", "PubChem SID": "SID160758978", "total luciferase, z-score": 2.92, "outcome": "inactive"}
{"gene knocked down": "CKAP2L (cytoskeleton associated protein 2L)", "PubChem SID": "SID160758979", "total luciferase, z-score": -0.434, "outcome": "inactive"}
{"gene knocked down": "CKAP2L (cytoskeleton associated protein 2L)", "PubChem SID": "SID160758980", "total luciferase, z-score": -1.51, "outcome": "inactive"}
